Reference: PubChem BioAssay AID1159578 (Peter MacCallum Cancer Centre, 2015)
Purpose: 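Genome-wide hunt for genes controlling movement of lymphatic endothelial cells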 (primary screen). Cell system: human lymphatic endothelial cells. Reagent: siRNA pool against human genes, 40 nM. Time to read-out: 48 h after transfection. Measured: 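Cells stained with dye and imaged after a scratch; covered wound area and nuclei counted, duplicates averaged, migration set against mock wells and turned into a robust z-score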. Reading the numbers: migration robust z-score: higher = faster migration into the scratch; migration relative to mock: higher = more scratch area covered than mock; nuclei per well: higher = more cells in the well. Rule for the call: 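Pools averaging fewer than 3300 nuclei are never called; remaining pools count as changed when migration robust z lies outside -2 to 2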. Calls: active = migration changed; inactive = no migration change, or too few cells.
This is one part, drawn at random, of about 18,000 deposited reagents. About 1,030 of all reagents (5.7%) count as active. 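Inactive calls also include pools with fewer than 3300 nuclei, whose migration was not assessed.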 Raw values vary from plate to plate and are shown uncorrected. Entries without a mark were called inactive.

| target gene | migration robust z-score | migration class with cell-count check | migration relative to mock | nuclei per well, duplicate mean |
| --- | --- | --- | --- | --- |
| ATP6V1B1 | -0.65 | migration z between -2 and 2; enough cells | 0.68 | 5204 |
| RBMX2 | 1.01 | migration z between -2 and 2; enough cells | 1.15 | 4018 |
| TEX11 | -1.55 | migration z between -2 and 2; enough cells | 0.48 | 5290 |
| KRT23 | 0.99 | migration z between -2 and 2; enough cells | 1.14 | 6660 |
| EFHC1 | 0.84 | migration z between -2 and 2; enough cells | 1.1 | 5866 |
| SYCP3 | -0.05 | migration z between -2 and 2; enough cells | 0.88 | 4506 |
| LAPTM4B | 1.17 | migration z between -2 and 2; enough cells | 1.19 | 5728 |
| PATE1 | 0.98 | migration z between -2 and 2; enough cells | 1.14 | 6140 |
| MFAP4 | -0.67 | migration z between -2 and 2; enough cells | 0.71 | 5849 |
| PPP1R42 | -1.05 | migration z between -2 and 2; enough cells | 0.62 | 6768 |
| SELENOK | -0.05 | migration z between -2 and 2; enough cells | 0.88 | 6038 |
| TDO2 | 0.7 | migration z between -2 and 2; enough cells | 0.94 | 5532 |
| OGFOD1 | -0.28 | migration z between -2 and 2; enough cells | 0.8 | 6413 |
| PRAMEF8 | 0.86 | migration z between -2 and 2; enough cells | 1.11 | 5715 |
| MARK3 | -4.67 | under 3300 nuclei; migration not judged | -0.1 | 1954 |
| TRIM35 | -1.32 | migration z between -2 and 2; enough cells | 0.55 | 4820 |
| PSMB9 | 2.08 (active) | migration z above 2; enough cells | 1.21 | 6612 |
| PSIP1 | -0.4 | migration z between -2 and 2; enough cells | 0.78 | 5398 |
| NTSR2 | -0.42 | migration z between -2 and 2; enough cells | 0.72 | 4953 |
| LHFPL4 | 0.5 | migration z between -2 and 2; enough cells | 1.02 | 5770 |
| ZDHHC16 | -1.48 | migration z between -2 and 2; enough cells | 0.5 | 4945 |
| ERCC2 | 0.73 | migration z between -2 and 2; enough cells | 0.94 | 5822 |
| CPA5 | -0.2 | migration z between -2 and 2; enough cells | 0.76 | 5986 |
| TCL1A | 0.28 | migration z between -2 and 2; enough cells | 0.96 | 4569 |
| VTCN1 | 0.38 | migration z between -2 and 2; enough cells | 0.99 | 5444 |
| NT5C1A | -1.34 | migration z between -2 and 2; enough cells | 0.54 | 5558 |
| BMP2K | 0.18 | migration z between -2 and 2; enough cells | 0.84 | 5473 |
| ZFAND5 | -1.56 | migration z between -2 and 2; enough cells | 0.5 | 5200 |
| USP29 | 1.02 | migration z between -2 and 2; enough cells | 1 | 5324 |
| WDR70 | 1.08 | migration z between -2 and 2; enough cells | 1.17 | 4928 |
| CTC1 | -1.04 | migration z between -2 and 2; enough cells | 0.62 | 6840 |
| CORO6 | -0.98 | migration z between -2 and 2; enough cells | 0.63 | 5644 |
| SMPD4 | -0.2 | migration z between -2 and 2; enough cells | 0.83 | 6434 |
| TIMM22 | -1.52 | migration z between -2 and 2; enough cells | 0.49 | 5403 |
| RTN3 | 0.99 | migration z between -2 and 2; enough cells | 1.15 | 5832 |
| DTNA | 0.28 | migration z between -2 and 2; enough cells | 0.96 | 3687 |
| MRPS18C | 1.02 | migration z between -2 and 2; enough cells | 1.15 | 6036 |
| GPX8 | 0.51 | migration z between -2 and 2; enough cells | 1.02 | 5799 |
| RIOX2 | -0.95 | migration z between -2 and 2; enough cells | 0.64 | 5261 |
| MBTPS2 | -0.34 | migration z between -2 and 2; enough cells | 0.74 | 5217 |
| CST11 | -0.08 | migration z between -2 and 2; enough cells | 0.86 | 6328 |
| MPHOSPH8 | 0 | migration z between -2 and 2; enough cells | 0.89 | 5852 |
| IFT81 | 0.46 | migration z between -2 and 2; enough cells | 1 | 5946 |
| PKLR | 1.06 | migration z between -2 and 2; enough cells | 1.01 | 4992 |
| MSANTD1 | 0.46 | migration z between -2 and 2; enough cells | 1 | 6345 |
| WEE1 | -4.59 | under 3300 nuclei; migration not judged | -0.08 | 1352 |
| CAPS2 | 0.35 | migration z between -2 and 2; enough cells | 0.98 | 5682 |
| BTBD17 | 0.69 | migration z between -2 and 2; enough cells | 1.06 | 6252 |
| ATP5MC2 | -0.24 | migration z between -2 and 2; enough cells | 0.82 | 6268 |
| TMEM132A | 0.68 | migration z between -2 and 2; enough cells | 1.06 | 4360 |
| ABO | 1.02 | migration z between -2 and 2; enough cells | 1.15 | 6172 |
| CDO1 | 0.26 | migration z between -2 and 2; enough cells | 0.86 | 7481 |
| BFSP2 | 1.59 | migration z between -2 and 2; enough cells | 1.31 | 4876 |
| ZNF740 | -1.31 | migration z between -2 and 2; enough cells | 0.55 | 5714 |
| WNT10B | -0.03 | migration z between -2 and 2; enough cells | 0.88 | 6568 |
| ZNF672 | -3.44 (active) | migration z below -2; enough cells | -0.01 | 3470 |
| PRAMEF9 | -0.9 | migration z between -2 and 2; enough cells | 0.65 | 3944 |

6 of these entries, set out differently.
target gene | migration robust z-score | migration class with cell-count check | migration relative to mock | nuclei per well, duplicate mean
TRIM35 | -1.32 | migration z between -2 and 2; enough cells | 0.55 | 4820
PSMB9 | 2.08 (active) | migration z above 2; enough cells | 1.21 | 6612
PSIP1 | -0.4 | migration z between -2 and 2; enough cells | 0.78 | 5398
NTSR2 | -0.42 | migration z between -2 and 2; enough cells | 0.72 | 4953
LHFPL4 | 0.5 | migration z between -2 and 2; enough cells | 1.02 | 5770
ZDHHC16 | -1.48 | migration z between -2 and 2; enough cells | 0.5 | 4945
